Test system: His6-tagged GAFb domain of CyaB2
Test: HDXMS of the GAFb domain
Design: species or system Anabaena sp. PCC 7120
Conditions: 1 mM ligand, 20 °C, 0.5-10 min

Which “amide exchange / solvent accessibility of N- and C-terminal helices vs unliganded protein” value does the source give for `Nc1ncnc2c1ncn2[C@@H]1O[C@@H]2COP(=O)(O)O[C@H]2[C@H]1O` [cAMP, adenosine 3′, 5′—cyclic monophosphate] here?
Its value is “increased solvent accessibility”.

What about the “amide exchange, ligand-binding pocket region, vs unliganded protein” value of the same compound?
Its value is “decrease in exchange”.

What does the source list for `Nc1nc2c(ncn2[C@@H]2O[C@@H]3COP(=O)(O)O[C@H]3[C@H]2O)c(=O)[nH]1` [cGMP, guanosine 3′, 5′—cyclic monophosphate]?
amide exchange / solvent accessibility of N- and C-terminal helices vs unliganded protein: lack of alteration in the dynamics of the terminal helices; amide exchange, ligand-binding pocket region, vs unliganded protein: only some regions in the ligand-binding pocket showed an increase in exchange
